# Data reported in PMC6925144, “A prospective compound screening contest identified broader inhibitors for Sirtuin 1” (Scientific Reports, 2019).
# Chains of the proteins cited; added tags and fusions are not shown. Residues count along the entry.
# UniProt Q96EB6, 2-747 limits assumed: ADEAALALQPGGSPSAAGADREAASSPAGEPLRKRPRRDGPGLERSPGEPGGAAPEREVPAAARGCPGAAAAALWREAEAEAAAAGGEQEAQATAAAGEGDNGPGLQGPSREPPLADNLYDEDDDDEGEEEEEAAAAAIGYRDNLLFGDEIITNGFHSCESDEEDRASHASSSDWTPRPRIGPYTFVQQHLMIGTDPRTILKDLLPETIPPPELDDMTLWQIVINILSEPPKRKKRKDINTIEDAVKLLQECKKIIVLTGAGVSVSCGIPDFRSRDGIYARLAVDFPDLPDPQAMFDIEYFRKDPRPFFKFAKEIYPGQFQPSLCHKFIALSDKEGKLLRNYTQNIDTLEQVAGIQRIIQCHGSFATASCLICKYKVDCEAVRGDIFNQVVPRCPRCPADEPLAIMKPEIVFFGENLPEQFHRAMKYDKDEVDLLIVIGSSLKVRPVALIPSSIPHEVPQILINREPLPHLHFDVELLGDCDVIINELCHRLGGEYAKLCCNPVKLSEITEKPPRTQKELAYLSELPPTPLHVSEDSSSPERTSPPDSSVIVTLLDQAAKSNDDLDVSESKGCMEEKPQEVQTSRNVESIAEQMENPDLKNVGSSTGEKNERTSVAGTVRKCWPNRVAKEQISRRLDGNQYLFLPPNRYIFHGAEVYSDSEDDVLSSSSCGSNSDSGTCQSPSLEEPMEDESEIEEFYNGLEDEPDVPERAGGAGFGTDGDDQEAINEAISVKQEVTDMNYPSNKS
# Whole data set: some 3,200 compounds, median “TSA(with NAD+) / Primary screening (TSA) / delta Tm (K)” near -0.04, cut for the highest 2% near 0.37. This is one part of the list.
# Target: NAD-dependent deacetylase Sirtuin 1 (human, UniProt Q96EB6)
# Assay: primary screen, delta tm
# Set-up: single well (n = 1, as 'the same TSA')
# Details: 10 µM
row,Compound,TSA(with NAD+) / Primary screening (TSA) / delta Tm (K)
1,Sc1ncc[nH]1,-0.02
2,CC(=O)N1N=C(c2ccccc2)CC1c1ccc(Br)cc1 (stereo not shown),-0.08
3,Cc1cc(=O)oc2cc(NC(=O)c3cccc(S(=O)(=O)N(C)c4ccccc4)c3)ccc12,0.08
4,Fc1ccc(-c2csc3ncnc(N4CCN(c5nccs5)CC4)c23)cc1,-0.03
5,NCC(=O)OCc1ccccc1,-0.28
6,O=C1NCCN(C(=O)c2ccc[nH]2)C1c1ccc(C(F)(F)F)cc1 (stereo not shown),-0.21
7,Cc1ccc(NC(=O)COC(=O)C23CC4CC(C2)CC(c2ccccc2)(C4)C3)cc1S(=O)(=O)N(C)C,0.09
8,CC(C)(O)Cn1cnc2c(N3CCOCC3)ncnc21,-0.05
9,C=CCOc1ccc(C(=O)C2=C(O)C(=O)N(CCN3CCOCC3)C2c2cccs2)cc1 (stereo not shown),-0.01
10,O=C(CSc1nnc(-c2ccccc2Br)[nH]1)NCCN1C(=O)CSC1=O,0.06
11,NC(=O)c1ccc(OCC(=O)NCC2CN(Cc3ccccc3)CCO2)cc1 (stereo not shown),0.02
12,COc1ccc(-c2noc(CCC(=O)OCc3cc(=O)oc4cc(NC(C)=O)ccc34)n2)cc1,-0.01
13,COc1ccc(NC(=O)COc2ccc(C(=O)NCC34CC5CC(CC(C5)C3)C4)cc2OC)cc1,-0.01
14,Nn1c(S)nnc1COc1ccc(F)cc1,-0.06
15,CCC(=O)Nc1cccc(C(=O)NNC(=O)c2nc(-c3ccccc3)n(-c3ccccc3)n2)c1,-0.06
16,CCOc1ccc(C2C(C(=O)c3ccco3)=C(O)C(=O)N2CCCN2CCOCC2)cc1OCC (stereo not shown),-0.01
17,Cc1noc(C)c1CC(=O)Nc1ccccc1-c1nc(C(C)C)n[nH]1,-0.24
18,CCOCCn1ccc2cc(OC)c(F)cc2c1=O,-0.09
19,NCCN1CCNCC1,-0.01
20,N#CC1=C(N)Oc2c(ccc3ccccc23)C1c1ccccc1F (stereo not shown),-0.01
21,CC(C)Oc1ccc(C(=O)C2=C(O)C(=O)N(CCCN3CCOCC3)C2c2ccccc2F)cc1 (stereo not shown),0.01
22,C=CCOc1ccc(C2C(C(=O)c3cccs3)=C(O)C(=O)N2CCCN2CCOCC2)cc1 (stereo not shown),-0.01
23,O=C(CCc1cccnc1)Nc1ccccc1N1CCc2ccccc2C1,-0.14
24,COCc1noc(CN2CCCCC2c2cc3ccccc3[nH]2)n1 (stereo not shown),-0.01

# Six entries from above, arranged by number of heavy atoms, descending:
row,Compound,TSA(with NAD+) / Primary screening (TSA) / delta Tm (K)
21,CC(C)Oc1ccc(C(=O)C2=C(O)C(=O)N(CCCN3CCOCC3)C2c2ccccc2F)cc1 (stereo not shown),0.01
12,COc1ccc(-c2noc(CCC(=O)OCc3cc(=O)oc4cc(NC(C)=O)ccc34)n2)cc1,-0.01
3,Cc1cc(=O)oc2cc(NC(=O)c3cccc(S(=O)(=O)N(C)c4ccccc4)c3)ccc12,0.08
4,Fc1ccc(-c2csc3ncnc(N4CCN(c5nccs5)CC4)c23)cc1,-0.03
2,CC(=O)N1N=C(c2ccccc2)CC1c1ccc(Br)cc1 (stereo not shown),-0.08
19,NCCN1CCNCC1,-0.01

# More entries follow:

row,Compound,TSA(with NAD+) / Primary screening (TSA) / delta Tm (K)
1,CCCOc1ccc(C(=O)C2=C(O)C(=O)N(CCCN3CCOCC3)C2c2ccco2)cc1 (stereo not shown),-0.05
2,O=C(CN1CCN(C(=O)c2ccc(-c3cc(Cl)ccc3Cl)o2)CC1)Nc1ccccc1Cl,-0.03
3,Cc1ccc(S(=O)(=O)NCC(=O)NCC(=O)OCC(=O)c2ccc(C3CCCCC3)cc2)cc1C,0.06
4,Cc1ccc(NC(=O)c2cccc(S(=O)(=O)N(C)c3ccc(C)cc3)c2)cc1,0.29
5,Cc1[nH]nc(C(N)=O)c1NC(=O)Cn1ccc2ccc(Cl)cc21,0.05
6,CC1CCN(CCNC(=O)NC(C)c2ccc3c(c2)CC(=O)N3)CC1 (stereo not shown),0.02
7,CC(=O)Nc1ccc(C(=O)COC(=O)c2ccccc2-c2ncc(-c3ccccc3)o2)cc1,-0.06
8,Cc1ccc(-c2sc(-c3ccccc3)nc2CC(=O)NC2(C)CCS(=O)(=O)C2)cc1 (stereo not shown),-0.33
9,CS(=O)(=O)NCCSc1nnc(NCC2CCCO2)s1 (stereo not shown),-0.09
10,COC(=O)c1cc(OC)ccc1NC(=O)Cn1c(-c2ccc(F)cc2)c(C)sc1=O,-0.11
11,O=C(c1cn(Cc2ccccc2)nc1-c1cccs1)N1CCCC1,-0.14
12,COc1ccc(C(=O)NC2CCCCCC2C(N)=O)c(F)c1 (stereo not shown),-0.01
13,CC(N)CC(=O)O (stereo not shown),0.05
14,CC(C)(C)c1ccccc1NC(=O)C1CC(=O)N(Cc2ccccc2)C1 (stereo not shown),-0.01
15,Cc1ccc(C)c(C(=O)Nc2cccc(S(=O)(=O)N3CCCCCC3)c2)c1,0.05
16,O=c1[nH]c(=O)c2[nH]c(=O)[nH]c2[nH]1,0.05
17,N#Cc1ccc(NC(=O)CSc2nnc(NCc3ccco3)s2)cc1,-0.04
18,Cc1ccc(-c2cc(-c3ccccc3)c3cc([N+](=O)[O-])ccc3n2)cc1,0.08
19,CN(CCC(=O)N1CCc2ccccc21)Cc1ccc2ccccc2c1,0.02
20,CS(=O)(=O)NCC(=O)O,0.17
21,CN(C)c1ccc(NC(=O)c2cccc(S(=O)(=O)N(C)c3cccc(Cl)c3)c2)cc1,0.06
22,CC(C)CNc1nnc(S)s1,0.07
23,Cn1cc(C(=O)OCc2ccc(C(=O)N3CCCC3)cc2)c2ccccc21,-0.11
24,COc1ccc(N(C)S(=O)(=O)c2cccc(C(=O)Nc3sc4c(c3C(N)=O)CCC(C)C4)c2)cc1 (stereo not shown),0.02

row,Compound,TSA(with NAD+) / Primary screening (TSA) / delta Tm (K)
1,CC(C)C(=O)NCCNC(=O)Nc1cc(C(N)=O)ccc1F,-0.13
2,Cc1ccc(Cn2c(=O)c3ccccc3n3c(SCC4CCCO4)nnc23)cc1 (stereo not shown),-0.04
3,Cc1cccn2c(=O)c3cc(C(=O)N4CCc5ccccc54)sc3nc12,0.08
4,Cc1nc(N2CCN(CCN3CCCC3)CC2)c2c(-c3ccccc3)csc2n1,-0.01
5,FC(F)(F)c1cc(N2CCN(Cc3nc4ccccc4[nH]3)CC2)n2ncnc2n1,-0.23
6,Cc1ccc2[nH]c(C)c(CC(=O)OCC(=O)N3CCC(C(N)=O)CC3)c2c1,0.03
7,COCCNCCCN,-0.18
8,O=C(Nc1cccc(S(=O)(=O)N2CCOCC2)c1)C1c2ccccc2Oc2ccccc21,-0.09
9,Cc1nn(Cc2ccccc2Cl)c(C)c1-c1nc(-c2ccccc2)c(-c2ccccc2)[nH]1,-0.01
10,CC(C)(C)OC(=O)NCCOc1cccc(NS(=O)(=O)c2ccc3c4c(cccc24)C(=O)N3)c1,0.07
11,COCCNc1ncnc2ccsc12,0.05
12,CC(O)CNCc1cn(-c2ccccc2)nc1-c1cc2ccccc2o1 (stereo not shown),-0.04
13,O=C(c1nn(Cc2ccccc2)c(=O)c2ccccc12)N1CCN(Cc2ccncc2)CC1,0.07
14,COc1ccc2cc(CNC(=O)C3=COCCO3)ccc2c1,-0.38
15,CCCCc1ccc(N2CC(C(=O)N3CCN(c4cnccn4)CC3)CC2=O)cc1 (stereo not shown),-0.13
16,CCOC(=O)c1c(C)[nH]c(C(=O)CN(C)Cc2ccc(C)cc2)c1C,-0.05
17,CC(C)n1cnnc1C1CCN(c2ncc(C(N)=O)cc2Cl)CC1,0.03
18,O=C1CSc2ccc(C(=O)Nc3ccc(N4CCN(Cc5ccccc5)CC4)cc3)cc2N1,-0.23
19,O=C(NCc1cccnc1Oc1cccc(F)c1)N1CCOc2ccccc2C1,-0.01
20,COCC(N)CN (stereo not shown),0.05
21,Cc1nn(-c2ccccc2)c(C)c1CCC(=O)Nc1c(C)n(C)n(-c2ccccc2)c1=O,0.05
22,CCN(CC)CCCNC(=O)Nc1ccc(S(N)(=O)=O)cc1,-0.13
23,CNC(=O)CN(Cc1ccccc1)S(=O)(=O)c1ccc(Cl)cc1,-0.03
24,Cc1cccc(NS(=O)(=O)c2cccc(C(=O)OCC(=O)NC(=O)NC34CC5CC(CC(C5)C3)C4)c2)c1,0.46

row,Compound,TSA(with NAD+) / Primary screening (TSA) / delta Tm (K)
1,O=C(Cc1c(Cl)cccc1Cl)Nc1ccc(N2CCN(Cc3ccccc3)CC2)cc1,0.02
2,CCC(=O)N(c1nn(CN(C)Cc2c(C)nn(C3CCS(=O)(=O)C3)c2C)c(=S)s1)C1CC1 (stereo not shown),-0.22
3,CCC(=O)NC(C)C(=O)NCC1CCCO1 (stereo not shown),-0.36
4,NS(=O)(=O)Cc1cccc(Cl)c1,-0.13
5,COc1cc(CN(C)C(=O)Cn2cnc3ccccc3c2=O)ccc1OCc1ccccc1,0.06
6,Cc1ccc([N+](=O)[O-])cc1S(=O)(=O)Nc1ccc(C(=O)OC(C)C(=O)NC23CC4CC(CC(C4)C2)C3)cc1 (stereo not shown),0.76
7,NC(=O)C1CCN(C(=O)c2ccc(-c3ccc(Cl)cc3)s2)C1 (stereo not shown),-0.11
8,CCCCn1nnnc1COC(=O)c1cccc(S(=O)(=O)N(C)c2cccc(Cl)c2)c1,-0.12
9,CCN(CC)c1ncnc2c1oc1ccccc12,-0.03
10,O=C(O)c1ccc(S(=O)(=O)N2CCC(c3ccccc3)C2)c(F)c1 (stereo not shown),-0.02
11,CC(C)CNc1ncnc2c1oc1ccccc12,-0.05
12,NC(=O)C1CN(c2nc(C3CC3)nc3sc4c(c23)CCCC4)CCO1 (stereo not shown),-0.19
13,CCC(C)c1ccc(C(Nc2ccc3nnnn3n2)C(C)C)cc1 (stereo not shown),0.07
14,CC(CNS(=O)(=O)c1ccc(CCC(=O)O)cc1)c1nc2ccccc2n1C(F)F (stereo not shown),0.01
15,CCOc1cccc(C=C2C(=O)NC(=S)NC2=O)c1,-0.01
16,Nc1cc(C(F)(F)F)ccc1O,-0.61
17,Cc1nn(C)c2ncc(S(=O)(=O)N(C)c3cccc(C#N)c3)cc12,0.03
18,Cc1nc(N2CCN(C(=O)CCc3ccccc3)CC2)c2cc[nH]c2n1,-0.11
19,CN(c1ccc(Oc2ccccc2)cc1)S(=O)(=O)c1cc(C(N)=O)n(C)c1,0.02
20,COC(=O)c1ccc(C2NC(=O)NC3=C2C(=O)N(CCO)C3)cc1 (stereo not shown),-0.03
21,CC(C)(C)NCCN,-0.01
22,CCCCc1ccc(NC(=O)c2cccc(S(=O)(=O)N(C)c3cccc(Cl)c3)c2)cc1,-0.16
